The results in this text go back to publication PMC7862277.

Chains of the proteins cited; added tags and fusions are not shown.
UniProt P03372: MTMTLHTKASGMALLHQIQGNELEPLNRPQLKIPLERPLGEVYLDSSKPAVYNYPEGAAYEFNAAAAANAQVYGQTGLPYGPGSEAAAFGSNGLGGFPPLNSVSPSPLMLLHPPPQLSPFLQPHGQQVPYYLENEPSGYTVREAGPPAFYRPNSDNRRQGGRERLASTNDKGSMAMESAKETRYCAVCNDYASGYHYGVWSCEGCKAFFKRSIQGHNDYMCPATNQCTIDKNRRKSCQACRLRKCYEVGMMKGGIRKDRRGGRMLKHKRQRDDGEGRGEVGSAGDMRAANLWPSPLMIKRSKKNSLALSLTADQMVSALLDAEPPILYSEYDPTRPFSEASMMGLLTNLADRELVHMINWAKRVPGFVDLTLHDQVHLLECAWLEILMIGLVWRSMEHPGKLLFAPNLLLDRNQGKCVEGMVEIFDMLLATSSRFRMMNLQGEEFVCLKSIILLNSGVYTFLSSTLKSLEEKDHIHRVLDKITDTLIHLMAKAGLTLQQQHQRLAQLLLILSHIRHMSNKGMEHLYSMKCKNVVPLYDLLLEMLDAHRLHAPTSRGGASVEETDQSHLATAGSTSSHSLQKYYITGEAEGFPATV

The target in assay [1] is T1, FLAG-tagged NUPR1 (human) (UniProt O60356).
T1 sequence: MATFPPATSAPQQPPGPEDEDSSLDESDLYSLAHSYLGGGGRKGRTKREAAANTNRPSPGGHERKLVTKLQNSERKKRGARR
As to the kind of experiment: proximity ligation; Duolink In Situ Red kit in MCF-7TamR cells with FLAG-tagged NUPR1 and endogenous ESR1; cells treated with vehicle (ethanol) or 0.6 μM Tam for 24 h.

The target in assay [2] is T1, FLAG-tagged NUPR1 (human). As to the kind of experiment: co-IP; whole-cell lysates of MCF-7TamR cells transfected with FLAG-tagged NUPR1, ESR1 or ESR1 deletions, with or without Tam treatment for 48 h; IP with M2 anti-FLAG antibody, Western blotting.
Assay [3] addresses FLAG-tagged ESR1 (full-length) (UniProt P03372). The description is as above.

These are yes or no findings as the source states them, for the method shown. In cells and extracts the contact can be indirect. Some entries that bind do so weakly or less than the wild type. For part of these data: Where a sequence is shown, tags or fusion partners need not be part of it.

Turning to “ESR1 (estrogen receptor alpha), endogenous (from UniProt P03372 1-595)”, the binding result in assay [1] and in assay [2] was “binds” throughout.

B1: NUPR1, endogenous (protein, UniProt O60356 1-82)
chain: MATFPPATSAPQQPPGPEDEDSSLDESDLYSLAHSYLGGGGRKGRTKREAAANTNRPSPGGHERKLVTKLQNSERKKRGARR
For the molecule B1, the binding entry in assay [3] was “binds”.
